Source: PMC12809078
These are yes or no findings as the source states them, for the method shown. For part of these data: In cells and extracts the contact can be indirect. Some entries that bind do so weakly or less than the wild type. One block for each substance: values may come before it.

Amino acid sequences for entries named in this document (tags omitted).
UniProt Q9H9B1: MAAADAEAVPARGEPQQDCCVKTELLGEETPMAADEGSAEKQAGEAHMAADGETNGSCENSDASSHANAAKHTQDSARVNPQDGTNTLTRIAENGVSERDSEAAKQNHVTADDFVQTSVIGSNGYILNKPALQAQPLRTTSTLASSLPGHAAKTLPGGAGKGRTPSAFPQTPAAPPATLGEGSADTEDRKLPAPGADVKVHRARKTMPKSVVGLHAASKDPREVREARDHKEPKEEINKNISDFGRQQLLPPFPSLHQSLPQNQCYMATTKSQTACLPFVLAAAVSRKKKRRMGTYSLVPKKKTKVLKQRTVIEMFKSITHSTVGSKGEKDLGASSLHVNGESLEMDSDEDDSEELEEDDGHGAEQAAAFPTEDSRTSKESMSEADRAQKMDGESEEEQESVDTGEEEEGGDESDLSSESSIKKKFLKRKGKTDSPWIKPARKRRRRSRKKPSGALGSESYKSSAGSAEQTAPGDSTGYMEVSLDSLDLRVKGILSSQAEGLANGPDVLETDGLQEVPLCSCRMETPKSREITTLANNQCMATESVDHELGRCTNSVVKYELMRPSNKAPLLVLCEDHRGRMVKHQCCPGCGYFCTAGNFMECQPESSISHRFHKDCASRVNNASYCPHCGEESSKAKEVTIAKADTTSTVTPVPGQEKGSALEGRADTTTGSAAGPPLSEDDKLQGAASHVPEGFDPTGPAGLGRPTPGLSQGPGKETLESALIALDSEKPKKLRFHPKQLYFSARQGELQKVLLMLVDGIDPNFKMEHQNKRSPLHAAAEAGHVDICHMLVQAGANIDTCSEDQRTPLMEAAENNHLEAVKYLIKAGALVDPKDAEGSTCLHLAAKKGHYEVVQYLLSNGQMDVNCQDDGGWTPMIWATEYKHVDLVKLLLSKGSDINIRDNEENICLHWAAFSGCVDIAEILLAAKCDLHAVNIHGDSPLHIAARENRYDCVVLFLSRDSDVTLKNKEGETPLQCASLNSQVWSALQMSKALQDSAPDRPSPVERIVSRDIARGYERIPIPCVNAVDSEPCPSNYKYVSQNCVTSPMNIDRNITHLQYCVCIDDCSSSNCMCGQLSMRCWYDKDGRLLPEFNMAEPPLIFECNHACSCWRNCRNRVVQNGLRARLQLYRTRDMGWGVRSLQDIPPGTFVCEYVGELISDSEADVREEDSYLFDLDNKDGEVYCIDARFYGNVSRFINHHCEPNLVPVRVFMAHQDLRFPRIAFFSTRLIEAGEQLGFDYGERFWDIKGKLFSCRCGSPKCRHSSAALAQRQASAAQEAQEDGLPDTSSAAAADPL

How the values were obtained:
[1] = molecular target: CtBP2^Monomer (R147A, R148A, R169A, R177A)-FLAG (human) (UniProt P56545); test: co-IP; two-tag co-IP: HEK293T co-transfected with matched CtBP2-FLAG and CtBP2-Myc (WT/WT or mutant/mutant); anti-FLAG resin, blot for Myc
[2] = molecular target: CtBP2-(1-445)-FLAG (human) (UniProt P56545); test: co-IP; HEK293T co-transfected with CtBP2-FLAG and Myc-tagged G9a or GLP; anti-FLAG resin, FLAG peptide elution, Western blot
[3] = molecular target: CtBP2^Monomer (R147A/R148A/R169A/R177A), recombinant (human) (UniProt P56545); test: SEC; Superose 6 Increase 10/300 GL; 20 mM Tris-HCl pH 8.0, 150 mM NaCl, 2 mM DTT; 0.35 ml/min; both purified

- binding [1]: no binding
Substance: CtBP2^Monomer (R147A, R148A, R169A, R177A)-FLAG (from UniProt P56545 1-445)

- binding [2]: binds
Substance: GLP-(1-1298)-Myc (from UniProt Q9H9B1 1-1298)

- binding [3]: no binding
Substance: CtBP2^Monomer (R147A/R148A/R169A/R177A), recombinant (from UniProt P56545 1-445)
